Counter-ions that a name gives are not always drawn. Some of the results follow. Repeats in this data set agree poorly, so a single value says little.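 JEG3 cells stably carry tetracycline-induced wild-type human LRH-1, a heavily sumoylated nuclear receptor. APOC3 and MUC1 are SUMO-sensitive transcripts, raised by SUMO-less LRH-1 or UBC9 knockdown, measured by RT-qPCR against TBP and DMSO controls. A robust Z-score above +2 or below -2 marked a primary hit before toxicity and TBP filtering.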
Test system: JEG3 expressing hLRH-1
Assay: APOC3 transcript change (ddCt vs TBP and DMSO), Z-score over library; higher = higher APOC3 expression
Details: 10 µM; time (hr): 24

SMILES	APOC3 transcript change (Z-score)
CN(C)CC/C=C1\c2ccccc2Sc2ccc(Cl)cc21 [chlorprothixene hydrochloride]	-0.17
CC(=O)[C@H]1CC[C@H]2[C@@H]3CC=C4C[C@@H](OC(=O)CCC(=O)O)CC[C@]4(C)[C@H]3CC[C@]12C [pregnenolone succinate]	0.327
NC(=O)NO [hydroxyurea]	1.65
Nc1cc(-c2ccncc2)cnc1O [amrinone]	0.622
NCCC[C@H](N)CC(=O)N[C@H]1CNC(=O)[C@H]([C@H]2C[C@H](O)N=C(N)N2)NC(=O)/C(=C/NC(N)=O)NC(=O)[C@H](CO)NC(=O)[C@H](CO)NC1=O [viomycin sulfate]	0.422
CN1CCN(C2=Nc3cc(Cl)ccc3Nc3ccccc32)CC1 [Clozapine]	-0.271
CN/C(=C\[N+](=O)[O-])NCCSCc1csc(CN(C)C)n1 [nizatidine]	-0.856
CCCCOC(=O)c1ccc(O)cc1 [butyl paraben]	-0.209
C#C[C@]1(OC(C)=O)CC[C@H]2[C@@H]3CCC4=CC(=O)CC[C@@H]4[C@H]3CC[C@@]21C [norethindrone acetate]	0.582
N=C(N)NS(=O)(=O)c1ccc(N)cc1 [sulfaguanidine]	-0.423
Sc1[nH]cnc2ncnc1-2 [mercaptopurine]	0.803
O=C(c1ccccc1)c1ccc2n1CCC2C(=O)O (stereo unspecified) [ketorolac tromethamine]	1.89
CC(=O)OCC(=O)[C@@]12OC3(CCCC3)O[C@@H]1C[C@H]1[C@@H]3CCC4=CC(=O)C=C[C@]4(C)[C@@]3(F)[C@@H](O)C[C@@]12C [amcinonide]	1.61
CCC(=O)OCC(=O)C1(OC(=O)CC)C(C)CC2C3CCC4=CC(=O)C=CC4(C)C3(Cl)C(O)CC21C (stereo unspecified) [beclomethasone dipropionate]	0.997
CO/C(O)=C1/C(C)=NC(C)=C(C(=O)OCCN2CCN(C(c3ccccc3)c3ccccc3)CC2)C1c1cccc([N+](=O)[O-])c1 (stereo unspecified) [manidipine hydrochloride]	0.332
Cc1ncc([N+](=O)[O-])n1CC(C)O (stereo unspecified) [secnidazole]	0.323
NC(=O)c1ccc([N+](=O)[O-])cc1Cl [aklomide]	-0.0538
CC1COc2c(N3CCN(C)CC3)c(F)cc3c(=O)c(C(=O)O)cn1c23 (stereo unspecified) [ofloxacin]	-0.505
CN1CCN(c2cc3c(cc2F)c(=O)c(C(=O)O)cn3-c2ccc(F)cc2)CC1 [difloxacin hydrochloride]	0.696
CCCC(C(=O)OCCN(CC)CC)(c1ccccc1)c1ccccc1 [SKF-525A hydrochloride]	0.408
NC(=O)CC[C@H](N)C(=O)O [L-Glutamine]	0.294
COc1c2occc2c(OC)c2c(=O)cc(C)oc12 [khellin]	-0.103
NC(=O)C1CCCN1C(=O)C(Cc1c[nH]cn1)NC(=O)C1CCC(=O)N1 (stereo unspecified) [protirelin]	0.635
CN1CCC[C@H]1c1cccnc1 [nicotine ditartrate]	0.358

SMILES	APOC3 transcript change (Z-score)
CC[C@H](C)C(=O)O[C@H]1C[C@H](O)C=C2C=C[C@H](C)[C@H](CC[C@@H](O)C[C@@H](O)CC(=O)O)[C@H]21 [pravastatin sodium]	0.185
Oc1[nH]cnc2nncc1-2 [Allopurinol]	-0.458
C=C(NC(=O)C(=C)NC(=O)c1csc(C2=NC3c4csc(n4)C4NC(=O)c5csc(n5)C(C(C)(O)C(C)O)NC(=O)C5CSC(=N5)/C(=C\C)NC(=O)C(C(C)O)NC(=O)c5csc(n5)C3(CC2)NC(=O)C(C)NC(=O)C(=C)NC(=O)C(C)NC(=O)C(C(C)CC)NC2C=Cc3c(C(C)O)cc(nc3C2O)C(=O)OC4C)n1)C(N)=O (stereo unspecified) [thiostrepton]	-0.206
COc1ccc(C2C(=O)c3ccccc3C2=O)cc1 [anisindione]	0.221
OCC(S)CS (stereo unspecified) [dimercaptopropanol]	-0.911
[Li+] [lithium citrate]	-0.442
COc1ccc2nc3cc(Cl)ccc3c(Nc3cc(CN4CCCC4)c(O)c(CN4CCCC4)c3)c2n1 [pyronaridine tetraphosphate]	-0.117
NC(=O)C1(N2CCCCC2)CCN(CCCC(=O)c2ccc(F)cc2)CC1 [pipamperone]	-0.109
C=C[C@@]1(C)CC(=O)[C@@]2(O)[C@](C)(O1)[C@@H](OC(C)=O)[C@@H](O)C1C(C)(C)CC[C@H](O)[C@@]12C (stereo partly specified) [colforsin]	1.24
CCC(=O)OCC(=O)[C@@]1(OC(=O)CC)[C@H](C)CC2C3C([C@@H](O)C[C@@]21C)[C@@]1(C)C=CC(=O)C=C1C[C@H]3Cl (stereo partly specified) [alclometazone dipropionate]	0.834
O=S(=O)(O)CCCS(=O)(=O)O [eprodisate disodium]	0.309
NCc1ccccc1CC(=O)NC1C(=O)N2C(C(=O)O)=C(CSc3nnnn3CC(=O)O)CSC12 (stereo unspecified) [ceforanide]	0.101
COc1cc(NS(=O)(=O)c2ccc(N)cc2)nc(OC)n1 [sulfadimethoxine]	0.251
CC(=O)OCC(=O)[C@@]1(O)[C@H](OC(C)=O)C[C@H]2[C@@H]3CCC4=CC(=O)C=C[C@]4(C)[C@@]3(F)[C@@H](O)C[C@@]21C [triamcinolone diacetate]	0.106
CN1C2CCC1CC(OC(=O)c1c[nH]c3ccccc13)C2 (stereo unspecified) [3-Tropanyl-indole-3-carboxylate hydrochloride]	0.445
CC(C)c1nc(N(C)S(C)(=O)=O)nc(-c2ccc(F)cc2)c1/C=C/[C@@H](O)C[C@@H](O)CC(=O)O [rosuvastatin]	-0.0135
CCCCNc1ccc(C(=O)OCCN(C)C)cc1 [Tetracaine hydrochloride]	-0.864
O=C1OC2(c3ccc(O)cc3Oc3cc(O)ccc32)c2ccccc21 [fluorescein]	0.157
O=c1[nH]c(=O)n([C@H]2C[C@H](O)[C@@H](CO)O2)cc1C(F)(F)F [trifluridine]	4.01
Cc1cc(C(C)(C)C)cc(C)c1CC1=NCCN1 [xylometazoline hydrochloride]	-0.162
CC1(C)S[C@@H]2[C@H](NC(=O)COc3ccccc3)C(=O)N2[C@H]1C(=O)O [penicillin v potassium]	-0.6
CCCC(=O)O[C@]1(C(=O)CO)CC[C@H]2[C@@H]3CCC4=CC(=O)CC[C@]4(C)[C@H]3[C@@H](O)C[C@@]21C [hydrocortisone butyrate]	0.569
N=C(N)NC(=O)Cc1c(Cl)cccc1Cl [guanfacine hydrochloride]	-0.428
CCC1OC(=O)[C@H](C)C(=O)[C@H](C)[C@@H](OC2O[C@H](C)C[C@H](N(C)C)[C@H]2O)[C@](C)(OC)C[C@@H](C)C(=O)[C@@H](C)[C@@H]2N(CCCCn3cnc(-c4cccnc4)c3)C(=O)O[C@]12C (stereo partly specified) [telithromycin]	-0.0279

Quoted at random: three entries already listed
SMILES	APOC3 transcript change (Z-score)
Oc1[nH]cnc2nncc1-2 [Allopurinol]	-0.458
CN1CCN(c2cc3c(cc2F)c(=O)c(C(=O)O)cn3-c2ccc(F)cc2)CC1 [difloxacin hydrochloride]	0.696
OCC(S)CS (stereo unspecified) [dimercaptopropanol]	-0.911

Next part

SMILES	APOC3 transcript change (Z-score)
CCCOc1ccccc1-c1nc(O)c2[nH]nnc2n1 [Zaprinast]	-0.61
CC1=C(C/C=C(\C)CCC[C@H](C)CCC[C@H](C)CCCC(C)C)C(=O)c2ccccc2C1=O [phytonadione]	0.571
CN(Cc1cnc2nc(N)nc(N)c2n1)c1ccc(C(=O)NC(CCC(=O)O)C(=O)O)cc1 (racemic) [methotrexate(+/-)]	2.02
C[C@H]1O[C@@H](O[C@H]2[C@@H](O)C[C@H](O[C@H]3[C@@H](O)C[C@H](O[C@H]4CC[C@@]5(C)[C@H](CC[C@@H]6[C@@H]5CC[C@]5(C)[C@@H](C7=CC(=O)OC7)CC[C@]65O)C4)O[C@@H]3C)O[C@@H]2C)C[C@H](O)[C@@H]1O [digitoxin]	-7.04
CCCCCCCCNC(C)C(O)c1ccc(SC(C)C)cc1 (stereo unspecified) [suloctidil]	-1.09
Cn1c([N+](=O)[O-])cnc1COC(N)=O [ronidazole]	0.175
COc1ccc(CN(CCN(C)C)c2ncccn2)cc1 [thonzylamine hydrochloride]	-1.63
NCC(=O)CCC(=O)O [aminolevulinic acid hydrochloride]	1.12
C=CCNC(N)=S [allylthiourea]	-0.589
Cc1ccc(C)c(OCCCC(C)(C)C(=O)O)c1 [gemfibrozil]	-0.808
NC(=O)N1c2ccccc2CC(=O)c2ccccc21 [oxcarbazepine]	-0.0849
C/C=C/C(=O)N(CC)c1ccccc1C [crotamiton]	-0.171
CC1(C)[C@@H](O)CC[C@]2(C)[C@H]3C(=O)C=C4[C@@H]5C[C@@](C)(C(=O)O)CC[C@]5(C)CC[C@@]4(C)[C@]3(C)CC[C@@H]12 [enoxolone]	-0.146
C[C@]12CCC(=O)C=C1C=C[C@@H]1[C@@H]2CC[C@@]2(C)[C@H]1CC[C@@]21CCC(=O)O1 [canrenone]	-0.555
NCCS [Cysteamine hydrochloride]	-0.118
CC(C)(C)NCC(O)COc1cccc2c1CCCC2=O (stereo unspecified) [levobunolol hydrochloride]	0.782
CN(C)CCC(c1ccccc1)c1ccccn1 (stereo unspecified) [pheniramine maleate]	0.54
CC(=O)Oc1cccc(C(=O)O)c1OC(C)=O [dipyrocetyl]	-0.643
CC(C)(Sc1cc(C(C)(C)C)c(O)c(C(C)(C)C)c1)Sc1cc(C(C)(C)C)c(O)c(C(C)(C)C)c1 [probucol]	0.77
CN(C)CCOC(=O)C(c1ccccc1)C1(O)CCCC1 (stereo unspecified) [cyclopentolate hydrochloride]	0.622
NCCc1cc[nH]n1 [betazole hydrochloride]	0.139
Nc1ccc(C(=O)NCC(=O)O)cc1 [aminohippuric acid]	-0.113
CC(=O)Nc1ccc(S(=O)(=O)Nc2ccc([N+](=O)[O-])cc2)cc1 [sulfanitran]	-0.697
